# In PubChem BioAssay AID1347076 (National Center for Advancing Translational Sciences (NCATS), 2019):
# The whole screen tested about 400,000 compounds, of which about 13,000 (3.2%) were called active. The shares of active, inactive and inconclusive entries below differ from those in the screen. Calls come from the whole dose curve; as a rule, active = well fitted cell-killing curve with a large enough effect; inconclusive = small, poorly fitted or top-dose-only effect, or effect the other way; inactive = flat fitted curve, though single readings scatter. Potencies of inconclusive entries are doubtful fits and often do not repeat.
# Test: qHTS assay for MDR1-selective chemotherapeutics: Primary screen using the drug-selected MDR subline cells KB-V1; note: nearly all actives have a fitted effect of over 60% in size
# Conditions: KB-V1 MDR cells viability, CellTiter-Glo, 72 h; activity change, negative = cytotoxicity: at 46.1 µM (top of the series)
# Summary of the method: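 Luminescent ATP read-out (CellTiter-Glo, 10 min) measures survival of drug-selected KB-V1 MDR cells after 72 h, 37 degrees C compound exposure. Medium: phenol-red-free DMEM, 10% FBS. Values from fitted concentration-response curves.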
# % is set by controls: 0 for no effect and ±100 for the full control effect; potency is the fitted concentration of half-maximal effect.
Structure (SMILES),"activity change, negative = cytotoxicity",Potency
Cc1cccn2c(=O)c3cc(C(=O)NCCc4ccccc4)c(=N)n(CC4CCCO4)c3nc12 (stereo not drawn),inactive: -4.32%,
CCOc1cc(CNCCc2ccc(S(N)(=O)=O)cc2)ccc1OCc1ccc(Cl)cc1,,"inconclusive: 29.1 µM [cytotoxic, single point]"
Cc1ccc(-c2ccc(/C=N/N3C(=O)C4C5C=CC(CC5)C4C3=O)o2)c([N+](=O)[O-])c1 (stereo not drawn),,"inconclusive: 25.9 µM [cytotoxic, single point]"
CC1=C(C)CC(C(=O)Nc2ccc(C(N)=O)cc2)C(C(=O)O)C1 (stereo not drawn),,"inconclusive: 9.2 µM [rising, partial curve]"
O=C(CNC(=O)c1ccccc1Cl)NC1CCN(Cc2ccccc2)CC1,,"inconclusive: 16.4 µM [cytotoxic, single point]"
N#Cc1c(Cl)nsc1NN,inactive: -9.18%,
CCc1nc(N=Nc2c(O)[nH]c3ccccc23)c2c3c(sc2n1)CCC3,,"inconclusive: 18.4 µM [rising, single point]"
OC1CCCC1NCc1ccnc2cc(Cl)ccc12 (stereo not drawn),,"inconclusive: 20.6 µM [cytotoxic, single point]"
COc1ccc(OCC(=O)C2CC2)c(C#N)c1,inactive: 0.832%,
Cc1cccc(CCN2C(N(C)C)=NC[C@@H]2CC(C)C)c1,,"inconclusive: 29.1 µM [rising, single point]"
Cc1ccc(S(=O)(=O)N2CCC(=O)N(C(COCc3cccc(C)c3)Cc3ccccc3)CC2)cc1 (stereo not drawn),inactive: -26.6%,
O=C1CN=C(Nc2ccccc2Cl)N1Cc1ccc2c(c1)OCO2,inactive: -3.18%,
COc1ccc(-c2cc([C@H]3[C@H]4C=CC[C@@H](C)[C@@H]4C(=O)N3Cc3ccccc3)ccc2F)cc1,,"inconclusive: 1.3 µM [cytotoxic, single point]"
Cc1ccc(N(Cc2cc(=O)[nH]c3ccccc23)C(=O)CCl)c(C)c1,,"inconclusive: 10.3 µM [cytotoxic, partial curve, poor fit]"
O=C1c2ccccc2S(=O)(=O)c2cc(N3CCN(c4ccccc4)CC3)ccc21,,"inconclusive: 20.6 µM [rising, single point]"
C1=Cc2ccccc2/C1=C\c1ccc2c(c1)OCO2,inactive: -13.4%,
Cc1cccc(C)c1N(CC(O)Cn1c2ccccc2c2ccccc21)S(C)(=O)=O (stereo not drawn),,"inconclusive: 18.4 µM [cytotoxic, single point]"
COc1ccc(CCNC(=O)C2CCCN(S(=O)(=O)c3cnc[nH]3)C2)cc1OC (stereo not drawn),,"inconclusive: 16.4 µM [rising, single point]"
Clc1ccc(-c2nnc(Sc3nc4ccccc4o3)c3ccccc23)cc1,inactive: -15.3%,
O=C(NC1CCCCC1)N(CCN1CCOCC1)Cc1cc2cc3c(cc2[nH]c1=O)OCCO3,inconclusive: -70.2%,
Cc1cc(C)c2c(=O)n(CC(=O)NCCCN3CCOCC3)sc2n1,,"inconclusive: 1.84 µM [rising, single point]"
C=CCN(CC=C)C(=O)C1CCN(S(=O)(=O)c2ccc(N3CCCC3=O)cc2)CC1,inactive: -1.16%,
O=[N+]([O-])c1cccc(NC(=S)N2CCCC2)c1,,"inconclusive: 18.4 µM [rising, single point]"
COc1ccc(C(CC(=O)N2CCCC(C)C2)c2c(OC)cc(OC)c3c(-c4ccccc4)cc(=O)oc23)cc1 (stereo not drawn),inactive: -0.0937%,
Cc1ccc2nc(/C(C#N)=C/c3ccccc3C(=O)O)[nH]c2c1,inactive: 0%,

Structure (SMILES),"activity change, negative = cytotoxicity",Potency
Cc1cc(Cl)c2oc(C(=O)N3CCN(c4ccncc4)CC3)c(C)c2c1,,"inconclusive: 29.1 µM [cytotoxic, single point]"
CCC(=O)NC(=S)Nc1ccc(S(=O)(=O)NC2CCCCC2)cc1,,"inconclusive: 14.6 µM [cytotoxic, partial curve]"
C/C(=N\NC(=O)c1nnn(-c2nonc2N)c1-c1ccc2c(c1)OCO2)c1cccs1,,"inconclusive: 20.6 µM [rising, single point]"
O=C(NCc1cccs1)C(=O)NCC(c1ccco1)N1CCN(c2ccccc2)CC1 (stereo not drawn),,"inconclusive: 6.51 µM [cytotoxic, full curve]"
CC(C)C(N)c1csc(Nc2ccc(S(C)(=O)=O)cc2)n1 (stereo not drawn),inactive: -10.2%,
Cc1ccc(C)c(NC(=O)CCc2nnc3ccc(NCc4ccco4)nn23)c1,inactive: 1.25%,
C[C@@H]1CN([C@H](C)CO)C(=O)c2cc(Br)cnc2O[C@H]1CN(C)Cc1ccccc1,inactive: -22.8%,
COc1ccc(-c2ccc(SCC(=O)NC3CCCC3)nn2)cc1OC,,"inconclusive: 23.1 µM [cytotoxic, partial curve]"
O=C1CC(c2cccc(Cl)c2)Cc2nc(N3CCN(c4ccccc4)CC3)ncc21 (stereo not drawn),inactive: 15.7%,
COc1ccc(C(=O)Nc2ccc(C3=NNC(=O)CC3C)cc2NC(=O)c2ccc(OC)cc2)cc1 (stereo not drawn),,"inconclusive: 29.1 µM [rising, single point]"
Cc1ccc(N2C(=O)C3C(C2=O)C(C(=O)c2ccc(Cl)cc2)N2CCCC32)cc1 (stereo not drawn),,"inconclusive: 20.6 µM [rising, partial curve, poor fit]"
Cn1c(=O)[nH]c(=O)c2c1nc(N1CCCCCC1)n2CCCSc1nc2ccccc2o1,,"inconclusive: 10.3 µM [cytotoxic, partial curve, poor fit]"
CCOC(=O)/C=C1\SCC(=O)N1CC(=O)NC(C)c1ccccc1 (stereo not drawn),inactive: -10.4%,
CCCCNC(=O)O[C@@H]1C[C@H]2CCCC(=O)N3CC[C@@H](C1)[C@@H]23,,"inconclusive: 32.6 µM [cytotoxic, partial curve, poor fit]"
CO/N=C(/CS(=O)Cc1ccc(Cl)cc1)c1ccc(Cl)cc1 (stereo not drawn),,"inconclusive: 29.1 µM [cytotoxic, single point]"
COc1cccc(C(=O)Nc2ccc(NC(=O)C3CC=CCC3C(=O)O)cc2)c1 (stereo not drawn),inactive: 5.91%,
Cc1c(CN2CCc3c([nH]c4ccccc34)C2CC(C)C)cnn1C (stereo not drawn),,"inconclusive: 0.92 µM [cytotoxic, full curve, poor fit]"
Cc1ccc(C(=O)CSc2nnc(-c3ccccc3)n2-c2ccccc2)cc1,,"inconclusive: 23.1 µM [cytotoxic, partial curve, poor fit]"
CCOc1ccc(NS(=O)(=O)c2ccc3[nH]cc(C(=O)NC4CCCC4)c(=O)c3c2)cc1,,"inconclusive: 11.6 µM [rising, partial curve]"
Cc1cccc(NC(=O)NCc2cccnc2)c1C,inactive: -0.117%,
CN(C)C(=O)c1cccc(-c2cccc3nccn23)c1,inconclusive: 0%,
COc1ccc(OC(C)c2ccc(C#N)c(=O)[nH]2)cc1 (stereo not drawn),,"inconclusive: 9.2 µM [rising, partial curve, poor fit]"
CCN1c2ccccc2-c2nc(SCC(=O)Nc3c(C)cc(C)cc3C)ncc2S1(=O)=O,,active: 4.61 µM
O=C(NC(c1ccc(-c2ccccc2)cc1)c1cnccn1)C1CCN(CCCOc2ccccc2)CC1 (stereo not drawn),inactive: -20.1%,
CCN(CC)CCOC(=O)c1ccc(Cl)cc1Cl,,"inconclusive: 20.6 µM [rising, partial curve, poor fit]"

Structure (SMILES),"activity change, negative = cytotoxicity",Potency
COc1cccc(-n2c(-c3ccco3)nc3c(cnn3-c3ccc(C)cc3)c2=O)c1,inactive: -10.6%,
Fc1ccc(-c2csc(-c3ccccn3)n2)cc1F,inactive: 17.3%,
CC(=O)Nc1ccc(S(=O)(=O)NC2(C(F)(F)F)C(=O)Nc3c2c(=O)[nH]c(=O)n3-c2ccc(C)c(C)c2)cc1 (stereo not drawn),inactive: 13.4%,
N#Cc1cnc2cc(-c3ccccc3)nn2c1N,,active: 2.59 µM
CCCCNC(=S)N(C)/N=C/c1c(F)cccc1F,inactive: -22.4%,
CC1=C(C(=O)N(C(C)C)C(C)C)CC(CC(=O)NCc2cccc3ccccc23)C(=O)N1Cc1ccc(C(C)(C)C)cc1 (stereo not drawn),,"inconclusive: 16.4 µM [cytotoxic, partial curve, poor fit]"
C=CCn1cc(/C=N\NC(=O)c2cc3c(ccc4ccccc43)o2)c2ccccc21,inactive: -6.55%,
COc1ccc(Cl)cc1NC(=O)CNc1ccccc1N1CCOCC1,,"inconclusive: 23.1 µM [rising, single point]"
CCOc1ccc(S(=O)(=O)N2CCc3ccccc3C2)cc1,inactive: -17%,
O=C(CN1c2cccc3cccc(c23)S1(=O)=O)N1CCN(c2ccc(F)cc2)CC1,inactive: -4.09%,
CC(O)/C=C/c1ccc2ccccc2n1 (stereo not drawn),,"inconclusive: 29.1 µM [cytotoxic, single point]"
CC(NC(=O)c1ccccc1)c1nnc(SCC(=O)NC2CCCC2)n1C (stereo not drawn),,"inconclusive: 2.91 µM [rising, full curve]"
Cc1ccc2cccc(NC(=O)C(C)Oc3ccc(C)c(C)c3)c2n1 (stereo not drawn),inactive: 0.037%,
COc1ccc(OC)c(CN2C(=O)CCC2(C)c2nnnn2-c2c(C)cccc2C)c1 (stereo not drawn),,"inconclusive: 11.6 µM [cytotoxic, partial curve, poor fit]"
CCN(CC(=O)NCc1ccc(Cl)cc1)C(=O)COc1cccc(Cl)c1,inactive: -10.5%,
O=C(NN=C1c2ccccc2-c2ccccc21)c1cccc(Br)c1,,"inconclusive: 18.4 µM [cytotoxic, single point]"
O=C(O)c1cc(O)c2c(c1)C(=O)c1cccc(O)c1C2=O,,"inconclusive: 29.1 µM [cytotoxic, single point]"
O=C1C=CC(=O)N1c1ccc(OC(F)F)cc1,,"inconclusive: 29.1 µM [cytotoxic, single point]"
CCCOc1ccc(C2C(=O)N(C3CCCCC3)CC(=O)N2CCC)cc1OC (stereo not drawn),inactive: 0%,
O=C(Nc1cc(Cl)ccc1Cl)C1(c2cccs2)CCOCC1,inactive: -9.63%,
COc1ccccc1NC(=O)C(=O)N1CCCC1,,"inconclusive: 0.651 µM [rising, full curve, poor fit]"
Cc1cccc(C)c1OCc1cc(C(=O)N(C)Cc2cc(C3CC3)n[nH]2)no1,inactive: -14.8%,
CC(=O)c1ccc(Nc2nc(C(N)C3CCCCC3)cs2)cc1 (stereo not drawn),inactive: -12.5%,

# A few values from the entries so far:
# Entry of `Fc1ccc(-c2csc(-c3ccccn3)n2)cc1F` under activity change, negative = cytotoxicity: inactive: 17.3%
# Entry of `O=C(Nc1cc(Cl)ccc1Cl)C1(c2cccs2)CCOCC1` under activity change, negative = cytotoxicity: inactive: -9.63%
# Entry of `O=C1C=CC(=O)N1c1ccc(OC(F)F)cc1` under Potency: inconclusive: 29.1 µM [cytotoxic, single point]
# Entry of `C=CCn1cc(/C=N\NC(=O)c2cc3c(ccc4ccccc43)o2)c2ccccc21` under activity change, negative = cytotoxicity: inactive: -6.55%
# Entry of `Cc1ccc2cccc(NC(=O)C(C)Oc3ccc(C)c(C)c3)c2n1` (stereo not drawn) under activity change, negative = cytotoxicity: inactive: 0.037%
